Experimental data from doi:10.1101/2024.06.20.599911 (bioRxiv, 2024).
Results are given in words; binding and its absence hold for the method and conditions named. For some assays here: Binding seen in cells or lysates may run through a third protein. Some entries that bind do so weakly or less than the wild type. For some assays here: Where a sequence is shown, tags or fusion partners need not be part of it.

T1: AtPHT1;1-S11 (PHOSPHATE TRANSPORTER 1;1 tagged with the 11th β-strand of sfGFP) (Arabidopsis thaliana) (UniProt Q8VYM2)
T1 sequence: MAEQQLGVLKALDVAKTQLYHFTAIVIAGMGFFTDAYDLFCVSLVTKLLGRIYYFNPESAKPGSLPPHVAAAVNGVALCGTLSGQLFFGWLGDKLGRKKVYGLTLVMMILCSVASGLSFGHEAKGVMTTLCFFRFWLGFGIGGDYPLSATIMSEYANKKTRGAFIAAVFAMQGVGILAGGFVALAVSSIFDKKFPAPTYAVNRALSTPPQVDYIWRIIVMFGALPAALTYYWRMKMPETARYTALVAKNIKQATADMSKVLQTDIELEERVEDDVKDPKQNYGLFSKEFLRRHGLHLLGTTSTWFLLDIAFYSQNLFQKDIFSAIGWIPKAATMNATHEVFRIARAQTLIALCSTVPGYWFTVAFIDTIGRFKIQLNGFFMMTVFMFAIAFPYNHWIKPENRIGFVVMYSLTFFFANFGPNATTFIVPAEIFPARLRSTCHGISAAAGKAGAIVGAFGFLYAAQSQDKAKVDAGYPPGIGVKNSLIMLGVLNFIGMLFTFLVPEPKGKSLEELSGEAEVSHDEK

T2: PLVCub-AtCNIH5 (Arabidopsis thaliana) (UniProt Q9SZ74)
T2 sequence: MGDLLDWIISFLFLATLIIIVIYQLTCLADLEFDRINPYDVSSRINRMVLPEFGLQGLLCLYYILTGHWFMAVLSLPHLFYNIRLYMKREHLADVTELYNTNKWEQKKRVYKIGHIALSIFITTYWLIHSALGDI

T3: S10-AtCNIH5 (Arabidopsis thaliana CORNICHON HOMOLOG 5 tagged with the 10th β-strand of GFP) (Arabidopsis thaliana) (UniProt Q9SZ74)
T3 sequence: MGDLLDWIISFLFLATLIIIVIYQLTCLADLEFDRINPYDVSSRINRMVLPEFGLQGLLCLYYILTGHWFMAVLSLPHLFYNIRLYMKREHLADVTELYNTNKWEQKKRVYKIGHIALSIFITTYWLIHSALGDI


Assays:
[1] = target: T1, AtPHT1;1-S11 (PHOSPHATE TRANSPORTER 1;1 tagged with the 11th β-strand of sfGFP) (Arabidopsis thaliana); assay: split reporter
[2] = target: T2, PLVCub-AtCNIH5 (Arabidopsis thaliana); assay: two-hybrid
[3] = target: T3, S10-AtCNIH5 (Arabidopsis thaliana CORNICHON HOMOLOG 5 tagged with the 10th β-strand of GFP) (Arabidopsis thaliana); assay: split reporter

Binder | binding [2] | also measured
S10-AtCNIH5 (Arabidopsis thaliana CORNICHON HOMOLOG 5 tagged with the 10th β-strand of GFP) (protein, UniProt Q9SZ74 1-135) MGDLLDWIISFLFLATLIIIVIYQLTCLADLEFDRINPYDVSSRINRMVLPEFGLQGLLCLYYILTGHWFMAVLSLPHLFYNIRLYMKREHLADVTELYNTNKWEQKKRVYKIGHIALSIFITTYWLIHSALGDI |  | binding [1]: binds
NubG-AtPHT1;1 (protein, UniProt Q8VYM2 1-524) MAEQQLGVLKALDVAKTQLYHFTAIVIAGMGFFTDAYDLFCVSLVTKLLGRIYYFNPESAKPGSLPPHVAAAVNGVALCGTLSGQLFFGWLGDKLGRKKVYGLTLVMMILCSVASGLSFGHEAKGVMTTLCFFRFWLGFGIGGDYPLSATIMSEYANKKTRGAFIAAVFAMQGVGILAGGFVALAVSSIFDKKFPAPTYAVNRALSTPPQVDYIWRIIVMFGALPAALTYYWRMKMPETARYTALVAKNIKQATADMSKVLQTDIELEERVEDDVKDPKQNYGLFSKEFLRRHGLHLLGTTSTWFLLDIAFYSQNLFQKDIFSAIGWIPKAATMNATHEVFRIARAQTLIALCSTVPGYWFTVAFIDTIGRFKIQLNGFFMMTVFMFAIAFPYNHWIKPENRIGFVVMYSLTFFFANFGPNATTFIVPAEIFPARLRSTCHGISAAAGKAGAIVGAFGFLYAAQSQDKAKVDAGYPPGIGVKNSLIMLGVLNFIGMLFTFLVPEPKGKSLEELSGEAEVSHDEK | binds | 
NubG-AtPHT1;4 (protein, UniProt Q96303 1-534) MAREQLQVLNALDVAKTQWYHFTAIIIAGMGFFTDAYDLFCISLVTKLLGRIYYHVEGAQKPGTLPPNVAAAVNGVAFCGTLAGQLFFGWLGDKLGRKKVYGMTLMVMVLCSIASGLSFGHEPKAVMATLCFFRFWLGFGIGGDYPLSATIMSEYANKKTRGAFVSAVFAMQGFGIMAGGIFAIIISSAFEAKFPSPAYADDALGSTIPQADLVWRIILMAGAIPAAMTYYSRSKMPETARYTALVAKDAKQAASDMSKVLQVEIEPEQQKLEEISKEKSKAFGLFSKEFMSRHGLHLLGTTSTWFLLDIAFYSQNLFQKDIFSAIGWIPPAQSMNAIQEVFKIARAQTLIALCSTVPGYWFTVAFIDVIGRFAIQMMGFFFMTVFMFALAIPYNHWTHKENRIGFVIMYSLTFFFANFGPNATTFVVPAEIFPARFRSTCHGISAASGKLGAMVGAFGFLYLAQNPDKDKTDAGYPPGIGVRNSLIVLGVVNFLGILFTFLVPESKGKSLEEMSGENEDNENSNNDSRTVPIV | binds | 
endogenous AtPHF1 (natural protein, UniProt Q8GYE0 1-398, looked up) MEIEEASRESGHVVCGSWIRRPKKVNWVLIAKASKRRGSSVSSPALLNIFSFDPITASLSSSPLATHTLKDSDGDPVAVSVHPGGDYFVCSTSKGGCKLFELVGGATGITILAKELLPLQNAGLQKCMAFSFDGSKLAVGGVDGCLRIMEWPNLSVILDEPKAHKSIRDMDFSLDSEFLATTSTDGSARIWKAEDGFPLSTLERSGDENIELCRFSKDGTKPFLFCAAQRGDTPMVNVYDISTWKKLGFKKLSRKTASTMAVSLDGKYIALGGKDGDVSVAEVKTMEIYHYSKRLHLGQSIASLEFCPSERVMLTTSSEWGEMVTKLTVPKEWKEWQIYALLFCLFMASVIAAYVFFENSDSFWKLPMGKDQKRPKISLFGGSSSTPSEDHSRWNLDL | binds | 
AtPHO2^C748A-S11 (catalytically defective PHOSPHATE2) (enzyme, UniProt Q8VY10 1-907) MEMSLTDSDWDSSSDSGSSEHEEVEFSYGGRAQNIFSNLEETIGKIDEFLSFERGFMYGDIVRSATEPSGQSGRVINIDMFVNLESTHGKIMKEVDTKRLQKLRSISLSDYVINGPWVGRVDKIVERVSVTLDDGTNYEVLVDGQDKLVAIPPNLLEDSQYSYYPGQRVQVKLAHAPRSTTWLCGTWRGTQVMGTVCTVEAGLVYVDWVASIVMEGDRNLTAPQALQNPESLTLLPCVSHASWQLGDWCILPGSSHCDIAERQTPNVAAYNLNECHKTFQKGFNRNMQNSGLDELFVITKTKMKVAVMWQDGSCSLGVDSQQLLPVGAVNAHDFWPEQFVVEKETCNSKKWGVVKAVNAKEQTVKVQWTIQVEKEATGCVDEVMEEIVSAYELLEHPDFGFCFSDVVVKLLPEGKFDPNADTIVATEAKHLLTESDYSGAYFLSSIGVVTGFKNGSVKVKWANGSTSKVAPCEIWKMERSEYSNSSTVSSEGSVQDLSQKISQSDEASSNHQETGLVKLYSVGESCNENIPECSSFFLPKAAIGFITNLASSLFGYQGSTSVISSHSRCNDSEDQSDSEVLVQETAESYDNSETNSGEVDMTTTMVNIPIEGKGINKTLDSTLLENSRNQVRFRQFDMVNDCSDHHFLSSDKGLAQSQVTKSWVKKVQQEWSNLEANLPNTIYVRVCEERMDLLRAALVGAPGTPYHDGLFFFDIMLPPQYPHEPPMVHYHSGGMRLNPNLYESGRVALSLLNTWSGSGTEVWNAGSSSILQLLLSFQALVLNEKPYFNEAGYDKQLGRAEGEKNSVSYNENAFLITCKSMISMLRKPPKHFEMLVKDHFTHRAQHVLAACKAYMEGVPVGSSANLQGNSTTNSTGFKIMLSKLYPKLLEAFSEIGVDCVQEIGPES |  | binding [3]: no binding
